This assay deals with EcDnaB, replicative helicase DnaB from Escherichia coli (Escherichia coli) (UniProt P0ACB0). The experiment in a line: intrinsic fluorescence variation along a thermal ramp (Tycho NT.6 nano-DSF); 20 µM of each protein in 50 mM HEPES pH 7.5, 150 mM NaCl, 1 mM ATP; 350/330 nm ratio, 35 to 95°C, compared with the ratio predicted in the absence of interaction; three to five replicates; both purified.

By UniProt entry, the sequences of proteins in these tests, tags left out.
UniProt P0ACB0: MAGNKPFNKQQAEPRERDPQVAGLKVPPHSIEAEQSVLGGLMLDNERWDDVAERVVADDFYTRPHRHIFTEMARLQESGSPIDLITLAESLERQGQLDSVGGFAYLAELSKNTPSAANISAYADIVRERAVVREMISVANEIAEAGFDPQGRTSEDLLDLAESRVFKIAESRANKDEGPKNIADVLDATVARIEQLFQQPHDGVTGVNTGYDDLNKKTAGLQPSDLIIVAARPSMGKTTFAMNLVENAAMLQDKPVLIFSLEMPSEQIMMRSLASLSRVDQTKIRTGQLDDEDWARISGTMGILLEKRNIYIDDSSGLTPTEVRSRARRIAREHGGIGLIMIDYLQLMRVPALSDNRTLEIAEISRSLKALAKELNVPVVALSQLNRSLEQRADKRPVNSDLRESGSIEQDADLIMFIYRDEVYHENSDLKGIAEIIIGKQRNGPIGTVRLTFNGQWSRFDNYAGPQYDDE

Results are given in words; binding and its absence hold for the method and conditions named.

B1: EcDnaC^(53-end), EcDnaC with its NTD deleted (domain or fragment, UniProt P0AEF0 53-245)
chain: MQRTFNRSGIRPLHQNCSFENYRVECEGQMNALSKARQYVEEFDGNIASFIFSGKPGTGKNHLAAAICNELLLRGKSVLIITVADIMSAMKDTFRNSGTSEEQLLNDLSNVDLLVIDEIGVQTESKYEKVIINQIVDRRSSSKRPTGMLTNSNMEEMTKLLGERVMDRMRLGNSLWVIFNWDSYRSRVTGKEY
In the case of B1, the binding entry is recorded as “no binding (tested: 20 µM of each protein)”.

Values taken from article PMC9912922, “The LH–DH module of bacterial replicative helicases is the common binding site for DciA and other helicase loaders” (Acta Crystallographica. Section D, Structural Biology, 2023).
